PubChem BioAssay AID652259, Drosophila RNAi Screening Center, 2013
The deposit covers about 22,000 reagents; below is an unselected part of those that have a named target and a result. Over the whole deposit, 233 (1.1%) were called active. 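Light values are raw, unnormalised plate reads; the ratio scores behind the reporter calls were not deposited.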 A number with no mark means an inactive call. Not stated in the record: the amount of reagent, the time to read-out, the dose of the treatment.

Aim: 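Knock-downs that push a Wingless-driven reporter up or down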 (primary screen)
Cell system: Drosophila clone 8 imaginal disc epithelial cells
Knock-down reagent: long dsRNA against Drosophila genes
Conditions: pathway stimulated by co-transfected Wingless expression plasmid
Detection: 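Firefly luciferase from a tcf-site Wingless reporter, measured alongside co-transfected Renilla luciferase that tracks transfection; pathway stimulated by a Wingless plasmid; the firefly-to-Renilla ratio is not deposited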
Scale: firefly reporter light: higher = more Wg reporter light, before normalisation; Renilla control light: higher = more transfected or surviving cells
Call rule: 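a knock-down is a candidate when at least two out of four statistical tests show it departing from its plate mean; one test alone signals a weak candidate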
Calls: active = candidate regulator (raises or lowers reporter); inactive = not a candidate

| target gene | DRSC id | firefly reporter light, replicate 1 | firefly reporter light, replicate 2 | Renilla control light, replicate 1 | Renilla control light, replicate 2 |
| --- | --- | --- | --- | --- | --- |
| CG12983 | DRSC11692 | 17757 | – | 5626 | – |
| CG13712 | DRSC08321 | 1552 | 8432 | 1443 | 4608 |
| CG11999 | DRSC12185 | 14736 | – | 4291 | – |
| tRNA:Leu-CAA-2-3 (transfer RNA:Leucine-CAA 2-3) | DRSC13633 | 3478 | – | 1541 | – |
| CG31637 | DRSC02270 | 16330 | – | 8477 | – |
| CG31637 | DRSC03263 | 3040 | 8374 | 745 | 969 |
| Hsepi (Heparan sulfate C5-epimerase) | DRSC04986 | 3256 | 8166 | 1148 | 3200 |
| Ugt49B2 (UDP-glycosyltransferase family 49 member B2) | DRSC16049 | 41569 | – | 7984 | – |
| vari (varicose) | DRSC03202 | 2489 | 8083 | 813 | 2256 |
| fwd (four wheel drive) | DRSC08580 | 10435 | – | 2605 | – |
| Mf (Myofilin) | DRSC16120 | 16848 | – | 3210 | – |
| Cks30A (Cyclin-dependent kinase subunit 30A) | DRSC03292 | 6573 | – | 2368 | – |
| CG6083 | DRSC10580 | 4566 | – | 2012 | – |
| csul (capsuleen) | DRSC07599 | 6393 | – | 2228 | – |
| CG11693 | DRSC14353 | 22224 | – | 4777 | – |
| rpr (reaper) | DRSC11390 | 6871 | – | 3232 | – |
| kek2 (kekkon 2) | DRSC03552 | 2299 | 9572 | 613 | 4237 |
| ftz-f1 (ftz transcription factor 1) | DRSC11347 | 9265 | – | 2464 | – |
| CG7573 | DRSC10884 | 7248 | – | 2796 | – |
| hpRNA:CR32207 (hairpin RNA:CR32207) | DRSC09616 | 3365 | – | 1579 | – |
| halo | DRSC00705 | 3184 | 8221 | 1216 | 3169 |
| CG5250 | DRSC15752 | 15460 | – | 3922 | – |
| mid (midline) | DRSC02977 | 2923 | 7526 | 1178 | 1508 |
| mid (midline) | DRSC21493 | 8.05e5 | 7.71e5 | 4.27e5 | 3.60e5 |
| CG7017 | DRSC10762 | 16752 | – | 2265 | – |
| CG42710 | DRSC01034 | 16041 | – | 8083 | – |
| CG2955 | DRSC00552 | 8052 | – | 3728 | – |

The list goes on; the last 3 above are carried over.
| target gene | DRSC id | firefly reporter light, replicate 1 | firefly reporter light, replicate 2 | Renilla control light, replicate 1 | Renilla control light, replicate 2 |
| --- | --- | --- | --- | --- | --- |
| CG7017 | DRSC10762 | 16752 | – | 2265 | – |
| CG42710 | DRSC01034 | 16041 | – | 8083 | – |
| CG2955 | DRSC00552 | 8052 | – | 3728 | – |
| slf (schlaff) | DRSC00583 | 2053 | 7595 | 842 | 2626 |
| CG32588 | DRSC22285 | 4.76e5 | 3.83e5 | 1.37e5 | 1.31e5 |
| Actbeta (Activin-beta) | DRSC17185 | 4381 | – | 1766 | – |
| Actbeta (Activin-beta) | DRSC17217 | 17094 | – | 11573 | – |
| CG5080 | DRSC00677 | 12615 | – | 5146 | – |
| Dap160 (Dynamin associated protein 160) | DRSC01834 | 13177 | – | 12681 | – |
| Dap160 (Dynamin associated protein 160) | DRSC03313 | 10349 | – | 3121 | – |
| CG30466 | DRSC05556 | 22436 | – | 14517 | – |
| Stlk (Ste20-like kinase) | DRSC22687 | 4.22e5 | 4.10e5 | 1.54e5 | 1.32e5 |
| Slip1 (SLo interacting protein 1) | DRSC17146 | 1384 | 4295 | 887 | 1376 |
| CG8661 | DRSC20115 | 24404 | – | 11724 | – |
| Jhbp1 (Juvenile hormone binding protein 1) | DRSC12167 | 22646 | – | 6234 | – |
| CG31642 | DRSC02919 | 7065 | – | 4068 | – |
| CG8547 | DRSC07211 | 16692 | – | 3912 | – |
| CG15452 | DRSC20523 | 16692 | – | 7328 | – |
| CG13465 | DRSC10011 | 7165 | – | 2944 | – |
| ru (roughoid) | DRSC08258 | 4331 | – | 1881 | – |
| CG11586 | DRSC08203 | 10162 | 8.00e5 | 4080 | 4.02e5 |
| ATP7 | DRSC19819 | 21840 | – | 9165 | – |
| RpL40 (Ribosomal protein L40) | DRSC00782 | 3801 | 7482 | 866 | 1424 |
| hlk (hulk) | DRSC05021 | 2964 | 4407 | 514 | 1744 |
| hlk (hulk) | DRSC05022 | 2409 | 8396 | 402 | 2484 |
